This assay deals with T1, endogenous ARL11 in primary mouse BMDMs (mouse (endogenous in BMDMs)) (UniProt Q6P3A9).
T1 sequence: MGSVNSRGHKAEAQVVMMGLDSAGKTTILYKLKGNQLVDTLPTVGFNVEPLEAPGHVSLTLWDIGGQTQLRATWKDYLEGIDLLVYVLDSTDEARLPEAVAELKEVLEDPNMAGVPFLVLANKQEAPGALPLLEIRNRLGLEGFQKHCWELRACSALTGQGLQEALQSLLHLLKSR
In words: co-IP; control or LPS-treated primary BMDMs; lysates precipitated with anti-ARL11 antibody or anti-IgG control antibody; immunoblot for endogenous MAPKs and phospho-ERK1/2.

No constants are given. Whether binding was seen depends on the method and setting. Binding seen in cells or lysates may run through a third protein.

Our source for the binding values is publication PMC6016484.

Consider endogenous p38 in primary mouse BMDMs, for which the binding result was “no binding”.
